The assay can be described thus: qHTS Assay for Lipid Storage Modulators in Drosophila S3 Cells.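 As to cell number change: cells counted by Cell Tracker Red CMTPX staining in the red channel.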 Particulars: BODIPY lipid droplet fluorescence, 18-24 h; for cell number change: measured here: cell count max response, cells fed with added oleic acid. The procedure, abridged: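 Laser-scanning cytometry quantifies lipid droplet accumulation (500–530 nm total intensity; droplet/cell object ratio) in oleic acid-fed (400 uM added) Drosophila S3 cells treated with a concentration series. 20 uM Triacsin C defined 100% inhibition.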

Setting [1] is: measured here: cell number channel AC50, cells fed with added oleic acid.
The mark [2] stands for this setting: measured here: lipid fluorescence (Fed channel) AC50, cells fed with added oleic acid.

The AC50 is the concentration at which the activity in the assay is half-maximal. Lower therefore signals activity at low concentration.

Structures are written as SMILES. Some of the results follow. Further columns of the screen follow, without active or inactive calls. Most of these compounds were active or inconclusive in the main read-out, so they are no random draw. Words in brackets tell the shape of the fitted curve; partial curves, single points and poor fits give uncertain potencies.

With `N#C/C(=N\Nc1ccc(Cl)cc1)C(=O)c1ccccc1`, the cell number change was -41.2%. The AC50 under setting [1] is 32.6 µM [falling, single point].
`CN1C(=O)/C(=C\c2ccccc2F)Sc2ccc(C(=O)NC3CCN(Cc4ccccc4)CC3)cc21`: the cell number change was -17.6%. The AC50 under setting [1] is 0.103 µM [rising, full curve].
For `Cc1ccc2c(c1)N(CC(=O)NC1CCCC1)C(=O)CO2`, the cell number change is 27.6%.
Same read-out and setting: to `Cc1onc(-c2ccccc2)c1C(=O)N1CCN(c2ncccc2C(F)(F)F)CC1` belongs 3.79%.
Take `c1ccc(OCCCCn2cnc3ccccc32)cc1`: the cell number change is -39.3%. Further, the AC50 under setting [1] is 29.1 µM [falling, single point].
As for `COc1ccc(CC(=O)OCC(=O)N2CCN(S(=O)(=O)c3ccc(C)cc3C)CC2)cc1`, the cell number change was -66.3%. In addition, the AC50 under setting [1] is 29.1 µM [falling, single point]. In addition, the AC50 under setting [2] is 3.26 µM [falling, partial curve].
Turning to `COc1ccc(-c2noc(CCCC(=O)N3CCOCC3)n2)cc1`, the cell number change is 23.1%.
Turning to `COC(=O)c1cc(NC(=O)c2cccc(F)c2)cc(C(=O)OC)c1`, the cell number change came to 49.7%. For the same molecule, under setting [1], the AC50 was 10.3 µM [rising, partial curve, poor fit].
On to `COc1ccc(C(=O)NC(Nc2ccc(C)cc2)C(Cl)(Cl)Cl)cc1` (centres undefined), for which the cell number change was -30.2%. In addition, the concentration at half-maximal activity (AC50) under setting [1] was 18.4 µM [falling, single point]. In addition, the AC50 under setting [2] is 20.6 µM [falling, partial curve, poor fit].
As to `CCOc1ccc(C(=O)C[n+]2cccc3cc(C)ccc32)cc1`, the cell number change is -18.1%. Further, under setting [2], the AC50 was 2.31 µM [falling, partial curve, poor fit].
Turning to `Cc1ccc(N(Cc2ccccc2)C(=O)CN2C(=O)NC3(CCCC3)C2=O)cc1`, the cell number change was found to be 5.6%.
Consider `Cc1nc2ccccc2n1S(=O)(=O)c1ccc(Br)cc1`, for which the cell number change amounted to 17.1%. In addition, the AC50 under setting [2] was 8.2 µM [rising, partial curve].
For `CCn1c(C)nc2cc(C(=O)NNC(=S)Nc3ccccc3)ccc21`, the cell number change was -0.637%. Moreover, the AC50 under setting [2] is 0.00461 µM [rising, full curve, poor fit].
With `Cc1cccc(OCC(O)Cn2c(-n3nc(C)cc3C)nc3c2c(=O)[nH]c(=O)n3C)c1` (centres undefined), the cell number change is -0.495%. Further, under setting [2], the AC50 was 1.16 µM [rising, full curve, poor fit].
`O=S(=O)(c1ccc(Cl)cc1)N1CCSC1c1ccco1` (centres undefined): the cell number change was -6.28%.
On to `CCN(C(=O)COC(=O)c1cccnc1Nc1ccccc1F)C1CCS(=O)(=O)C1` (centres undefined), for which the cell number change is 23.3%. In addition, the concentration at half-maximal activity (AC50) under setting [2] is 29.1 µM [rising, single point].
`CN1C(=O)c2ccccc2N(C)C1c1ccc(F)cc1` (centres undefined): the cell number change stood at 21.4%. Besides, under setting [2], the concentration at half-maximal activity (AC50) is 29.1 µM [rising, single point].
For `C[C@@H](O)[C@@H]1NC(=O)c2cc([N+](=O)[O-])cc(I)c2NCC[C@@H](C(N)=O)NC(=O)CNC1=O`, the cell number change was 30.1%. Besides, under setting [1], the AC50 is 29.1 µM [rising, single point].
On to `COc1ccc(NC(=O)c2ccc3nc(C)sc3c2)cc1`, for which the cell number change is -5.77%. Under setting [2], the AC50 is 29.1 µM [falling, single point].
In the case of `COc1ccc(NC(=O)c2cc3n(n2)C(C(F)(F)F)CC(c2ccc(OC)cc2)N3)cc1` (centres undefined), the AC50 under setting [2] is 18.4 µM [rising, partial curve, poor fit].
In the case of `Cc1cc(C)n(-c2nnc(C)n2/N=C/c2ccccc2OCc2ccccc2Cl)n1`, the cell number change came to 36.3%. The AC50 under setting [1] is 29.1 µM [rising, single point]. Also, under setting [2], the AC50 is 29.1 µM [rising, single point].
Take `CCc1ccc(C(CNC(=O)c2ccc3c(=O)n(-c4ccccc4F)c(=S)[nH]c3c2)N(C)C)cc1` (centres undefined): the cell number change is 9.28%. The AC50 under setting [2] was 0.58 µM [falling, single point].
Take `CC(C)CCC(CC(C)O)C(=O)NNC(=S)Nc1ccccc1` (centres undefined): the cell number change was 14.2%.
On to `CCS(=O)(=O)N1CCCC(C(=O)NCCCN(C)Cc2ccccc2)C1` (centres undefined), for which the cell number change is -165%. Besides, the AC50 under setting [1] was 18.4 µM [falling, single point]. Besides, the concentration at half-maximal activity (AC50) under setting [2] was 29.1 µM [falling, single point].
With `Cc1nn(-c2ccccc2)c2nc(-c3ccco3)cc(C(=O)O)c12`, the cell number change is 3.86%. Under setting [2], the AC50 was 2.59 µM [falling, full curve].
For `CCN1CCN(c2nc(Nc3ccccc3)nc(N)c2[N+](=O)[O-])CC1`, the cell number change is -12.8%. The AC50 under setting [1] is 0.0058 µM [falling, full curve, poor fit].
Regarding `Cc1ccc(N(CC(=O)NC2CCCC2)C(=O)c2ccc(C)s2)cc1`, the cell number change was -5.19%. Also, under setting [2], the AC50 was 16.4 µM [falling, single point].
As to `COc1ccc(CCN2C(=O)C3C4CC(C5C(C(=O)O)=NOC45)C3C2=O)cc1OC` (centres undefined), the cell number change is -26.1%.
For `C=CCn1c(=O)[nH]c2cc(C(=O)N3CCN(c4cc(C)ccc4C)CC3)ccc2c1=O`, the half-maximal activity concentration (AC50) under setting [2] is 6.51 µM [falling, single point].
On to `CCCCC(=Nc1ccccc1OC)C1=C(O)CC(c2ccccc2)CC1=O` (centres undefined), for which the AC50 under setting [2] is 1.16 µM [rising, full curve].
Consider `COc1ccc(Cl)cc1NC(=O)c1cc(-c2ccccc2)on1`, for which the cell number change came out at 6.2%. Besides, under setting [1], the AC50 was 0.206 µM [rising, full curve, poor fit].
With `CC(=O)c1cccc(NC(=O)CSc2ncc(C(=O)Nc3ccccc3)c(=O)n2C)c1`, the AC50 under setting [1] is 6.51 µM [falling, single point].
For `CC(C)(C)C(=O)Nc1ccc(C(=O)NNC(=O)c2ccccc2)cc1`, the cell number change was -13.2%.
For `Cc1cc(C(=O)NNC(=S)Nc2ccccc2)nn1C`, the cell number change is -58.6%. The AC50 under setting [1] is 29.1 µM [falling, single point].
On to `O=C(OCC(=O)N1CCCC1=O)c1ncc(Cl)c(Cl)c1Cl`, for which the cell number change came to 77%. The AC50 under setting [1] was 10.3 µM [rising, partial curve].
As for `CCCCc1nc(NCCN2CCOCC2)c(C#N)c2c1COC(C)(C)C2`, the cell number change is -28.9%. The AC50 under setting [2] is 0.00461 µM [falling, full curve, poor fit].
On to `O=c1cc(O)nc(SC23CC4CC(CC(C4)C2)C3)[nH]1`, for which the cell number change was -6.12%. In addition, the concentration at half-maximal activity (AC50) under setting [2] was 8.2 µM [falling, partial curve].
For `CC1CCCC(NCC(=O)Nc2ccc(C(N)=O)cc2)C1C` (centres undefined), the cell number change came to 66.8%. The AC50 under setting [2] is 3.66 µM [rising, full curve].
Take `CCOC(=O)c1cc(CC)sc1NC(=O)CN1CCN(C(=O)c2ccco2)CC1`: the cell number change was -19.4%. For the same molecule, the AC50 under setting [2] was 29.1 µM [falling, partial curve, poor fit].
As for `CCOc1ccc(-n2c(SCC(=O)Nc3ccc(Br)cc3)nc3n[nH]c(C)c3c2=N)cc1`, the cell number change was -67%. In addition, the AC50 under setting [1] is 18.4 µM [falling, single point]. The AC50 under setting [2] is 20.6 µM [falling, single point].
On to `C=CCOc1ccc(/C(CC)=N/O)c(OC)c1`, for which the cell number change stood at 5.08%. Under setting [2], the AC50 is 16.4 µM [rising, single point].
In the case of `CCn1ccnc1CN1CCc2c([nH]c3ccccc23)C1C1CCCCC1` (centres undefined), the cell number change was -35.8%. Moreover, the AC50 under setting [1] is 29.1 µM [falling, single point]. In addition, the AC50 under setting [2] was 18.4 µM [falling, single point].
With `O=C(NCc1ccc(Cl)cc1)C(=O)NCC1OCCN1S(=O)(=O)c1ccc2c(c1)OCCO2` (centres undefined), the cell number change amounted to 28.1%. In addition, under setting [2], the AC50 is 1.64 µM [rising, partial curve].
In the case of `Cc1ccc(S(=O)(=O)NCc2nc3ccccc3[nH]2)cc1`, the cell number change came to 9.73%. For the same molecule, the half-maximal activity concentration (AC50) under setting [2] was 0.0058 µM [rising, full curve, poor fit].
`O=C1C2CCCN2C(c2ccc(F)c(F)c2)N1c1cccc(Cl)c1` (centres undefined): the cell number change came to 24.3%.
As for `COc1ccc(NCC(=O)Nc2ccc(C#N)cc2)cc1Cl`, the cell number change is -17.7%. For the same molecule, under setting [1], the half-maximal activity concentration (AC50) is 1.3 µM [rising, partial curve]. Moreover, the AC50 under setting [2] was 0.58 µM [rising, single point].
Regarding `CC(=O)Nc1ccc(NC(=O)CSc2nnc(NC(=O)c3cccc(F)c3)s2)cc1`, the cell number change was 1.89%. Also, the AC50 under setting [2] was 0.13 µM [rising, full curve, poor fit].
As to `CCC(CC)NC(=O)c1cccc([N+](=O)[O-])c1C`, under setting [1], the AC50 was 0.58 µM [falling, single point].
On to `O=C(NCc1ccncc1)c1ccc(NS(=O)(=O)c2ccc(F)cc2)cc1`, for which the cell number change was -9.47%. The AC50 under setting [2] was 3.26 µM [falling, partial curve, poor fit].
In the case of `CCOC(=O)C1(Cc2cccc(F)c2)CCN(C(=O)C2CCC2)CC1`, the cell number change was determined as 10.5%. Besides, the AC50 under setting [2] was 6.51 µM [rising, partial curve].
For `CCOC(=O)c1c(C)c(C(=O)NCCCOC)c(C)n1C`, the AC50 under setting [2] is 2.91 µM [rising, single point].
`CCOC(=O)c1c(NCc2ccccc2)n[nH]c1C`: the cell number change is -5.55%. The AC50 under setting [2] was 0.731 µM [rising, single point].
For the molecule `COc1ccc(C(=O)NC(=O)COC(=O)C2COc3ccccc3O2)cc1` (centres undefined), the cell number change is -56.3%. Besides, under setting [1], the AC50 is 9.2 µM [falling, partial curve]. Also, the AC50 under setting [2] is 14.6 µM [falling, partial curve].
On to `CCCn1nnc(NC(=S)NC(=O)Cc2ccccc2)n1`, for which the AC50 is 0.13 µM [rising, full curve, poor fit] under setting [1] and 0.517 µM [rising, single point] under setting [2].
On to `CC(C)N1C(=S)SC(C)(C)C1NO` (centres undefined), for which the cell number change was -20.1%. The AC50 under setting [2] is 1.3 µM [falling, full curve, poor fit].
As for `COc1ccc(-c2cnn3c4c(c(C)nc23)CCN4C2CCCC2)cc1OC`, the cell number change came out at 60.4%. The half-maximal activity concentration (AC50) under setting [1] was 10.3 µM [rising, partial curve, poor fit]. Further, the AC50 under setting [2] is 14.6 µM [rising, partial curve].
On to `O=C(CSc1nc(-c2ccccc2)cc(C(F)(F)F)n1)NCc1cccs1`, for which the cell number change was -6.97%. Further, the AC50 under setting [2] was 0.326 µM [falling, full curve, poor fit].
For the molecule `Cc1ccc(NC(=O)C2=C(c3ccccc3)S(=O)(=O)CCS2(=O)=O)cc1`, the cell number change was -156%. In addition, the AC50 under setting [1] was 7.31 µM [falling, partial curve]. Besides, the AC50 under setting [2] was 6.51 µM [falling, partial curve].
Take `Oc1ccccc1/C=N/n1cnnc1`: the cell number change is -31.9%. The AC50 under setting [1] is 0.651 µM [falling, full curve]. Besides, the AC50 under setting [2] was 1.03 µM [falling, full curve].

The values are drawn from PubChem BioAssay AID2685 (National Center for Advancing Translational Sciences (NCATS), 2010).
